The series can be described thus: general procedure: Fmoc solid-phase peptide synthesis; MBHA resin with Fmoc-Gly-MPPA-OH linker. The note with it: whole synthesis.

Some peptides are written in HELM: one residue between dots, names in brackets for other building blocks, links after the first $.

For the substance “PEPTIDE1{W.S.G.W.S.S.C.S.R.S.C.G}$PEPTIDE1,PEPTIDE1,7:R3-11:R3$$$V2.0”, the “crude HPLC purity” value is 44.51%. Also, for the setting “HPLC”, the “final purity (method not given)” value stood at 99%.

These data come from patent publication US10501497B2 (AXOLTIS PHARMA, priority 2015, dated 2019).
